Residue numbers refer to the chain shown, from its start. No constants are given. Whether binding was seen depends on the method and setting. Some results given as binding are weak or reduced against the parent protein; the word gives no strength. Blank lines part the entries; values can stand above or below the binder they belong to.
How the values were obtained:
[1] = target: Amyloid angiopathy (CAA), vascular amyloid β deposits (human AD brain; transgenic mouse models) (UniProt P05067); experiment: labeling, Table 1
[2] = target: Amyloid angiopathy (CAA), vascular amyloid β deposits (human AD brain; transgenic mouse models) (UniProt P05067); experiment: labeling, summary of Table 1
[3] = target: Amyloid plaques (fibrillar amyloid β deposits in brain tissue) (human AD brain; transgenic mouse models) (UniProt P05067); experiment: IHC after soaking of TauPS2APP mouse brains
[4] = target: Amyloid plaques (fibrillar amyloid β deposits in brain tissue) (human AD brain; transgenic mouse models) (UniProt P05067); experiment: IHC after stereotaxic injection
[5] = target: Amyloid plaques (fibrillar amyloid β deposits in brain tissue) (human AD brain; transgenic mouse models) (UniProt P05067); experiment: IHC after stereotaxic injection in mice
[6] = target: Amyloid plaques (fibrillar amyloid β deposits in brain tissue) (human AD brain; transgenic mouse models) (UniProt P05067); experiment: IHC and MRI after intracerebroventricular injection
[7] = target: Amyloid plaques (fibrillar amyloid β deposits in brain tissue) (human AD brain; transgenic mouse models) (UniProt P05067); experiment: IHC and ex vivo MRI after intracerebroventricular injection
[8] = target: Amyloid angiopathy (CAA), vascular amyloid β deposits (human AD brain; transgenic mouse models) (UniProt P05067); experiment: two-photon imaging after iv injection
[9] = target: Amyloid angiopathy (CAA), vascular amyloid β deposits (human AD brain; transgenic mouse models) (UniProt P05067); experiment: two-photon microscopy after topic brain infusion
[10] = target: Amyloid plaques (fibrillar amyloid β deposits in brain tissue) (human AD brain; transgenic mouse models) (UniProt P05067); experiment: two-photon microscopy after topic brain infusion
[11] = target: Amyloid angiopathy (CAA), vascular amyloid β deposits (human AD brain; transgenic mouse models) (UniProt P05067); experiment: two-photon imaging
[12] = target: Amyloid plaques (fibrillar amyloid β deposits in brain tissue) (human AD brain; transgenic mouse models) (UniProt P05067); experiment: two-photon imaging
[13] = target: Amyloid plaques (fibrillar amyloid β deposits in brain tissue) (human AD brain; transgenic mouse models) (UniProt P05067); experiment: immunohistochemistry on PS2APP brain slices
[14] = target: Amyloid plaques (fibrillar amyloid β deposits in brain tissue) (human AD brain; transgenic mouse models) (UniProt P05067); experiment: two-photon microscopy and IHC after intravenous injection
[15] = target: Amyloid angiopathy (CAA), vascular amyloid β deposits (human AD brain; transgenic mouse models) (UniProt P05067); experiment: two-photon microscopy after intravenous injection
[16] = target: Amyloid plaques (fibrillar amyloid β deposits in brain tissue) (human AD brain; transgenic mouse models) (UniProt P05067); experiment: IHC with anti-His mAb after iv injection
[17] = target: Amyloid plaques (fibrillar amyloid β deposits in brain tissue) (human AD brain; transgenic mouse models) (UniProt P05067); experiment: in vitro MRI of PS2APP mouse brains incubated with the conjugate
[18] = target: Amyloid plaques (fibrillar amyloid β deposits in brain tissue) (human AD brain; transgenic mouse models) (UniProt P05067); experiment: in vitro MRI
[19] = target: Amyloid plaques (fibrillar amyloid β deposits in brain tissue) (human AD brain; transgenic mouse models) (UniProt P05067); experiment: ex vivo MRI after intravenous injection in PS2APP mice
[20] = target: Amyloid plaques (fibrillar amyloid β deposits in brain tissue) (human AD brain; transgenic mouse models) (UniProt P05067); experiment: immunohistochemistry
[21] = target: Amyloid plaques (fibrillar amyloid β deposits in brain tissue) (human AD brain; transgenic mouse models) (UniProt P05067); experiment: ex vivo MRI after iv injection
[22] = target: Amyloid plaques (fibrillar amyloid β deposits in brain tissue) (human AD brain; transgenic mouse models) (UniProt P05067); experiment: immunohistochemistry, B6 PS2APP mouse paraffin sections
[23] = target: Amyloid plaques (fibrillar amyloid β deposits in brain tissue) (human AD brain; transgenic mouse models) (UniProt P05067); experiment: immunohistochemistry, B6.PS2APP mouse paraffin sections
[24] = target: Amyloid plaques (fibrillar amyloid β deposits in brain tissue) (human AD brain; transgenic mouse models) (UniProt P05067); experiment: IHC after intracarotid injection in mice
[25] = target: Amyloid plaques (fibrillar amyloid β deposits in brain tissue) (human AD brain; transgenic mouse models) (UniProt P05067); experiment: labeling, Table 1 (row printed for R3VE and R3VQ together)
[26] = target: Amyloid plaques (fibrillar amyloid β deposits in brain tissue) (human AD brain; transgenic mouse models) (UniProt P05067); experiment: IHC after in vivo injection
[27] = target: Amyloid plaques (fibrillar amyloid β deposits in brain tissue) (human AD brain; transgenic mouse models) (UniProt P05067); experiment: immunohistochemistry, human AD brain sections
[28] = target: Amyloid plaques (fibrillar amyloid β deposits in brain tissue) (human AD brain; transgenic mouse models) (UniProt P05067); experiment: IHC after stereotaxic injection in TauPS2APP mice
[29] = target: Amyloid plaques (fibrillar amyloid β deposits in brain tissue) (human AD brain; transgenic mouse models) (UniProt P05067); experiment: labeling, summary of Table 1

By UniProt entry, the sequences of proteins in these tests, tags left out. Residues count along the entry.
Amyloid plaques (fibrillar amyloid β deposits in brain tissue) (P05067, residues 672-713): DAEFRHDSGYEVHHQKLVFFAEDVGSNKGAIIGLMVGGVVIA
Amyloid angiopathy (CAA), vascular amyloid β deposits (P05067, residues 672-711): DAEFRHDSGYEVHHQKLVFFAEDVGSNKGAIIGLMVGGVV

B2: R3VQ-N-(DOTA/Gd)1-2 conjugate 2e (VHH, not shown: small tags and cut ends)
VHH: EVQLQASGGGLVQTGDSLRLSCADSGSTFRNYNIGWFRQTPGQAREFVAAVSRTGISTHVADSLQGRFTISRDNAKNTVYLQMNSLKPEDTAVYSCAAGRPGVGAVNRAMDYDYWGQGTQVTVSS
modifications: DOTA/Gd randomly on lysine residues; average Gd/protein (0) 1 2 (3)
binding [3]: binds | binding [4]: binds | binding [5]: binds | binding [6]: binds | binding [7]: binds

B3: R3VQ-S-AF488 (VHH)
VHH: B2 VHH with E1A, S124G, S125G
modifications: single maleimido-Alexa Fluor 488 (AF488) on the engineered C-terminal Cys
binding [8]: binds | binding [9]: binds | binding [10]: binds | binding [11]: binds | binding [12]: binds | binding [13]: binds | binding [14]: binds | binding [15]: binds | binding [16]: binds

B4: R3VQ-S-(DOTA/Gd)3 (VHH)
VHH: B2 VHH with E1A, S124G, S125G
modifications: maleimido-(DOTA/Gd)3 compound 4 on the engineered C-terminal Cys (thio-addition)
binding [17]: binds | binding [18]: binds | binding [19]: binds | binding [20]: binds | binding [21]: binds

B6: VHH R3VQ (VHH, not shown: large carriers)
VHH: B2 VHH
binding [24]: binds | binding [25]: binds | binding [26]: binds | binding [27]: binds | binding [28]: binds | binding [20]: binds | binding [29]: binds

Next, values leading:

binding [1]: binds | binding [2]: binds
B1: VHH R3VE (VHH, not shown: small tags and cut ends)
VHH: B2 VHH with Q5E

binding [22]: binds | binding [23]: binds
B5: R3VQ-SH (Cys-engineered R3VQ VHH) (VHH)
VHH: B2 VHH with E1A, S124G, S125G

From patent US20160355575A1
